The other results are listed elsewhere or left out.
Tests used:
Assay in all cases: log2 fold change, soluble protein after heating vs DMSO (PISA); higher = thermal stabilisation; K562 lysate, 10 uM; active = over 0.2 and 3.5 SD of the protein, either way, in both replicates (recomputed)
erlotinib = compound: C#Cc1cccc(Nc2ncnc3cc(OCCOC)c(OCCOC)cc23)c1 [erlotinib]
In short: (§1)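 Following dounce homogenisation of K562 pellets in PBS pH 7.4 with 1 mM MgCl2, crude extract at 1 mg/mL protein was incubated for 30 min with 10 μM compound. Aliquots were then heated for 3 min over 48°C-58°C and pooled, NP-40 was added to 0.5% at 4°C, and soluble protein was recovered as the supernatant at 21,000xg for 90 min. Channel-sum-equalised TMTpro 16plex LC-MS/MS quantified this protein. Each value, from duplicates, is a log-two fold change in thermal stability relative to solvent controls.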

By UniProt entry, the sequences of proteins in these tests, tags left out. Where a name states a change or a piece, a line headed by the entry shows the natural chain unless it says otherwise.
UniProt Q9NVN3: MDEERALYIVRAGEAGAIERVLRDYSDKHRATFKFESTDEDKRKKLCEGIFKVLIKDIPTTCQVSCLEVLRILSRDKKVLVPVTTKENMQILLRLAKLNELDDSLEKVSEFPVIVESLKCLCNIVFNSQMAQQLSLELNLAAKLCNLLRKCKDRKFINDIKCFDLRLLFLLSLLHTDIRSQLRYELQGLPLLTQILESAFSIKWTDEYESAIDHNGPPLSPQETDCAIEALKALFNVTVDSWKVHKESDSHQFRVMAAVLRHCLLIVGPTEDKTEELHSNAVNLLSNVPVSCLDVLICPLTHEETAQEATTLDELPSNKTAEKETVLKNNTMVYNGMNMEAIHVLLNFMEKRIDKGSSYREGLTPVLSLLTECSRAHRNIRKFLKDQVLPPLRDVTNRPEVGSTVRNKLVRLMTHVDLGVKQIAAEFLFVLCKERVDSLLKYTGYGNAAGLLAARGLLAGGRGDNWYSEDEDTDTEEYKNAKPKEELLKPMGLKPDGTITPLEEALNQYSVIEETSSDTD
UniProt Q9P0P0: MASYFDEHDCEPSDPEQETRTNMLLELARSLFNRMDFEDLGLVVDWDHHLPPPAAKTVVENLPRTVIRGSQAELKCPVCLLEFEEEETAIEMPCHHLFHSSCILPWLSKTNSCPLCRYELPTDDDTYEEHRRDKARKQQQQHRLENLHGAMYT
UniProt Q9BV68: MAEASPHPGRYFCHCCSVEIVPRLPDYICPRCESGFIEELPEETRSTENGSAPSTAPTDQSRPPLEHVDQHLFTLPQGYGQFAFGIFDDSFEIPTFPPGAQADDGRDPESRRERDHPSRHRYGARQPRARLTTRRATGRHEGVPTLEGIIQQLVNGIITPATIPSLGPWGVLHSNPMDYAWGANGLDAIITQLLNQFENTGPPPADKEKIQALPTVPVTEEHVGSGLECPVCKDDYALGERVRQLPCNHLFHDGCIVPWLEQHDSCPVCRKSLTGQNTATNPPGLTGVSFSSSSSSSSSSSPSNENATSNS
UniProt Q9H7B2: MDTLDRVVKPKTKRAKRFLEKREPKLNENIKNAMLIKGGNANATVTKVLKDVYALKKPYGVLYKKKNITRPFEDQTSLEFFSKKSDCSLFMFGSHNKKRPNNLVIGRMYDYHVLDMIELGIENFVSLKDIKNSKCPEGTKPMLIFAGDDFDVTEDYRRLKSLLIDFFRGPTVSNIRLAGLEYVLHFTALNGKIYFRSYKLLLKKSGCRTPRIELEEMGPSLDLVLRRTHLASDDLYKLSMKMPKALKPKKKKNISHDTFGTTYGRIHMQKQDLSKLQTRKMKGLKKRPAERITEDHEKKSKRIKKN
UniProt P49247: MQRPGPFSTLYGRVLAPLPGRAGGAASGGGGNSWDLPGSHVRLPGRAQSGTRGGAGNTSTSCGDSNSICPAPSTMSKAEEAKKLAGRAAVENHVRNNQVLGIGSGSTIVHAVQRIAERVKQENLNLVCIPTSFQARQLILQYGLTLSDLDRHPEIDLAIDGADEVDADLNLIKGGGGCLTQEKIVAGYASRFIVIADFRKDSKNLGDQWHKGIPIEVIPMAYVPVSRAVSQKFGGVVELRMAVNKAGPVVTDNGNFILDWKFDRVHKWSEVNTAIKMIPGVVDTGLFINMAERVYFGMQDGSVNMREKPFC
UniProt O15541: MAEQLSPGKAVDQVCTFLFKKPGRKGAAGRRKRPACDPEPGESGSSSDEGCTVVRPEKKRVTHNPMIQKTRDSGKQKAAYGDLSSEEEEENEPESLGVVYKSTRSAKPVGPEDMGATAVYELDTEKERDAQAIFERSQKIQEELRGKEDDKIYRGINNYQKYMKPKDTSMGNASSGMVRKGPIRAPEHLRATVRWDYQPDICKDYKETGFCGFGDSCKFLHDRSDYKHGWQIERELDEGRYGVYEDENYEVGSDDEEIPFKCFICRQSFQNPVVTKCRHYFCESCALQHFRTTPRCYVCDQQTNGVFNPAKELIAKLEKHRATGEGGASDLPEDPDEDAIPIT
UniProt O75116: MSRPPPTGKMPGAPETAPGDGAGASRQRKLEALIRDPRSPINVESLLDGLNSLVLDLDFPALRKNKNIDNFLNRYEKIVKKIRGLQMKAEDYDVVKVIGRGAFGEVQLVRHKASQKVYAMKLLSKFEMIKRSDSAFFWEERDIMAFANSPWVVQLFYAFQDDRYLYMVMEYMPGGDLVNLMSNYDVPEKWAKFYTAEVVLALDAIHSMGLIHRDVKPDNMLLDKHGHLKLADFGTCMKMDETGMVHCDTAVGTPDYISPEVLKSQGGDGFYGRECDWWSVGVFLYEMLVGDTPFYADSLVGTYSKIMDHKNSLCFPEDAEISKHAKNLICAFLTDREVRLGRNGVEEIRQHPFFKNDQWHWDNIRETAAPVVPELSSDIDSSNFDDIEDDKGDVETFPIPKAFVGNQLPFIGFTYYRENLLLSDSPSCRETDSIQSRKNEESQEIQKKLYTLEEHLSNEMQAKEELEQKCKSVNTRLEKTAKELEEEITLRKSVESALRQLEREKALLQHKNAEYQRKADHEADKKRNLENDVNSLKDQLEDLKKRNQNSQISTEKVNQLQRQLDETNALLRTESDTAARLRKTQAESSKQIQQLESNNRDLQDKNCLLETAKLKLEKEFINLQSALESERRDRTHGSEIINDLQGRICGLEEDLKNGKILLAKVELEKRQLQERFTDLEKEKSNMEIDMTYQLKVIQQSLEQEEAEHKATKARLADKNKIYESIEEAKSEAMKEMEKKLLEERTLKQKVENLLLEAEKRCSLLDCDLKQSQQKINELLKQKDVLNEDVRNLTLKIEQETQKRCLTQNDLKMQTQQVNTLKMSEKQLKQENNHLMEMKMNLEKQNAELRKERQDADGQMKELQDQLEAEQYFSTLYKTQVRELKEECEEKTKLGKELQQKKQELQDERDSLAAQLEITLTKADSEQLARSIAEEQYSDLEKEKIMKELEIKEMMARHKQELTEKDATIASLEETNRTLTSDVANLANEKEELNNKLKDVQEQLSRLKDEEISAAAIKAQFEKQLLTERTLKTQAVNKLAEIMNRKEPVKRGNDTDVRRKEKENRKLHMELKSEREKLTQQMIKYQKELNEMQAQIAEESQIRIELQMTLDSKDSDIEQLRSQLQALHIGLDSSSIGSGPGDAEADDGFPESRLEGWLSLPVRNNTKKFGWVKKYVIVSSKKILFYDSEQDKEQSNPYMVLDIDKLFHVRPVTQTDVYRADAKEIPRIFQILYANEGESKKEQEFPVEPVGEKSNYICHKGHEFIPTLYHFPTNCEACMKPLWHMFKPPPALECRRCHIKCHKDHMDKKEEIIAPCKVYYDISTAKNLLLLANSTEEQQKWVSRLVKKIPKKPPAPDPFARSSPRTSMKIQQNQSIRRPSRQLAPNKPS
UniProt O60942: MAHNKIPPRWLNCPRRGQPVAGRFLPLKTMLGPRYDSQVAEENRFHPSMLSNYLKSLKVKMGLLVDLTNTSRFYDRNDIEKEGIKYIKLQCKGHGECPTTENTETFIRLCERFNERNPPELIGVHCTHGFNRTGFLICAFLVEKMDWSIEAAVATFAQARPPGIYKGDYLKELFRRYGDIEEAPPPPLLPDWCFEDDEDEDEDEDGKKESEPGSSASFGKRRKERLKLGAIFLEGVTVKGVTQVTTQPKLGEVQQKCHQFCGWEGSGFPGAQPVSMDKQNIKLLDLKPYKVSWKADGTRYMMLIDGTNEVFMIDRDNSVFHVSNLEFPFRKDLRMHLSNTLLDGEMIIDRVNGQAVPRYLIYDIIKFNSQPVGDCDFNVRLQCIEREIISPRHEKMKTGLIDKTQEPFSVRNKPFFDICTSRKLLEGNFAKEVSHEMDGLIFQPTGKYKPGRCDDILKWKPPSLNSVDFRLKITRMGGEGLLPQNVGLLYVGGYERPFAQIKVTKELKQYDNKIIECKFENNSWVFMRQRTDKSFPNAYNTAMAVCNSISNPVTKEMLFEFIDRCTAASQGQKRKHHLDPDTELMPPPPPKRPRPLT
UniProt Q8IXI2: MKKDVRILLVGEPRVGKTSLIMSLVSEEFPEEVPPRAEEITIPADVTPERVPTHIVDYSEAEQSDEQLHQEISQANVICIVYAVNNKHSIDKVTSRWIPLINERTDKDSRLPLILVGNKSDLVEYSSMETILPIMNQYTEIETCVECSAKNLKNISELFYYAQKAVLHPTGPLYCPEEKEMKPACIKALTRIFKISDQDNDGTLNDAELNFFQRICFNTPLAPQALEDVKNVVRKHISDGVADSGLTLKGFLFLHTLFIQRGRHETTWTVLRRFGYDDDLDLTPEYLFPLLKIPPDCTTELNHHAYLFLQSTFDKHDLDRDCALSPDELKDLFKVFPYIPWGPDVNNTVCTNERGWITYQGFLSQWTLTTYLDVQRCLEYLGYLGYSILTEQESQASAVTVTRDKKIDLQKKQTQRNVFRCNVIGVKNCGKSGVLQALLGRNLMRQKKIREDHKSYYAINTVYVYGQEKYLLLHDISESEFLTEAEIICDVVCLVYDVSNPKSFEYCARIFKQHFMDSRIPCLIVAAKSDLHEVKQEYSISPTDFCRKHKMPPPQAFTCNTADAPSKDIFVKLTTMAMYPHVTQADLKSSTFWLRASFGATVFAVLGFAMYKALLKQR

[1] = compound: C/C(=N\NC(=O)C1=CC(=CC=C1)S(=O)(=O)N2CCOCC2)/C3=C(C=CC(=C3)Cl)O
In short: as §1

[2] = compound: C1=CC(=CC=C1C2=NC3=C(N2)C=C(C=C3)C(=O)N)OC4=CC=C(C=C4)Cl
In short: as §1

[3] = compound: C1=CC2=C(C=CC(=C2)/C=C\3/C(=O)NC(=NCC4=CC=CS4)S3)N=C1
In short: as §1

[4] = compound: C1=CC2=NC=CN=C2C=C1/C=C/3\C(=O)NC(=O)S3
In short: as §1

[5] = compound: C1=CC=C(C=C1)C2=NC(=C(N2)C3=CC=NC=C3)C4=CC(=C(C=C4)Cl)O
In short: as §1

[6] = compound: C1=CC=C2C(=C1)C3=NNC4=CC=CC(=C43)C2=O
In short: as §1

[7] = compound: C1CCN(C1)C(=O)NC2=CC=CC(=C2)NC3=NC=C(C(=N3)NCCC4=CN=CN4)Br
In short: as §1

[8] = compound: C1CN(CCC1(CC2=CC=C(C=C2)Cl)N)C3=NC=NC4=C3C=CN4
In short: as §1

IRAK-1-4 Inhibitor I = compound: C1COCCN1CCN2C3=CC=CC=C3N=C2NC(=O)C4=CC(=CC=C4)[N+](=O)[O-] [IRAK-1-4 Inhibitor I]
In short: as §1

ibrutinib = compound: C=CC(=O)N1CCC[C@@H](n2nc(-c3ccc(Oc4ccccc4)cc3)c3c(N)ncnc32)C1 [ibrutinib]
In short: as §1

[9] = compound: CC(=O)c1cnc2ccc(-c3cc(Cl)c(O)c(Cl)c3)nc2c1N[C@H]1CC[C@H](CN(C)C)CC1
In short: as §1

ralimetinib = compound: CC(C)(C)Cn1c(N)nc2ccc(-c3[nH]c(C(C)(C)C)nc3-c3ccc(F)cc3)nc21 [ralimetinib]
In short: as §1

[10] = compound: CC(C)(O)CC(=O)NCCn1ccc2ncnc(Nc3ccc(Oc4cccc(C(F)(F)F)c4)c(Cl)c3)c21
In short: as §1

[11] = compound: CC(C)C1=C2N=C(C=C(N2N=C1)NCC3=CC=CC=C3)NCCCCCCN
In short: as §1

[12] = compound: CC1=C(C(CC(=O)N1)C2=CC=C(C=C2)C(F)(F)F)C(=O)NC3=C(C=C4C(=C3)C=NN4)F
In short: as §1

[13] = compound: CC1=C(C2=C(C=C1)C(=O)C3=CC=CC=C3N2CCCN)C
In short: as §1

[14] = compound: CC1=C(C=C(C=C1)NC(=O)C2=CC(=CC=C2)C(C)(C)C#N)NC3=CC4=C(C=C3)N=CN(C4=O)C
In short: as §1

[15] = compound: CC1=C(C=C(C=C1)NC(=O)C2=CC(=CC=C2)N(C)C)NC(=O)C3=CC=C(C=C3)O
In short: as §1

[16] = compound: CC1=CC=C(C=C1)SC2=C3C=C(SC3=CN=C2)C(=O)N
In short: as §1

Measured: log2 fold change

RPL10 (UniProt P27635)
inactive: erlotinib 0.004 | [1] -0.134 | [2] -0.01 | [3] 0.001 | [4] 0.007 | [5] 0.018 | [6] 0.076 | [7] 0.039 | [8] -0.077 | IRAK-1-4 Inhibitor I -0.015 | ibrutinib -0.007 | [9] 0.004 | ralimetinib 0.014 | [10] 0.002 | [11] 0.003 | [12] 0.004 | [13] -0.038 | [14] -0.014 | [15] -0.008 | [16] 0.052

RIC8B isoform 1 (UniProt Q9NVN3)
inactive: erlotinib 0.004 | [1] 0.01 | [2] 0.065 | [3] 0.039 | [4] 0.049 | [5] 0.036 | [6] 0.023 | [7] -0.096 | [8] 0.065 | IRAK-1-4 Inhibitor I -0.041 | ibrutinib -0.018 | [9] 0.005 | ralimetinib 0.037 | [10] -0.099 | [11] -0.029 | [12] 0.04 | [13] -0.154 | [14] -0.012 | [15] 0.026 | [16] 0.016

RNF181 (UniProt Q9P0P0)
inactive: erlotinib 0.031 | [1] 0.037 | [2] 0.016 | [3] 0.036 | [4] -0.001 | [5] 0.022 | [6] -0.058 | [7] 0.03 | [8] 0.099 | IRAK-1-4 Inhibitor I -0.014 | ibrutinib 0.043 | [9] -0.024 | ralimetinib -0.001 | [10] -0.006 | [11] -0.005 | [12] -0.056 | [13] 0.008 | [14] 0.03 | [15] 0 | [16] 0.013

RNF126 (UniProt Q9BV68)
inactive: erlotinib -0.036 | [1] 0.024 | [2] -0.204 | [3] 0.011 | [4] 0.047 | [5] 0.079 | [6] 0.026 | [7] -0.04 | [8] 0.002 | IRAK-1-4 Inhibitor I -0.048 | ibrutinib -0.033 | [9] 0.039 | ralimetinib -0.003 | [10] -0.089 | [11] 0.154 | [12] -0.029 | [13] -0.023 | [14] 0.149 | [15] -0.05 | [16] -0.076

RPF2 (UniProt Q9H7B2)
inactive: erlotinib 0.098 | [1] 0.105 | [2] 0.079 | [3] 0.026 | [4] 0.075 | [5] 0.044 | [6] -0.035 | [7] -0.02 | [8] 0.026 | IRAK-1-4 Inhibitor I -0.012 | ibrutinib 0.028 | [9] 0.004 | ralimetinib -0.006 | [10] -0.028 | [11] -0.043 | [12] 0.072 | [13] -0.014 | [14] 0.053 | [15] 0.041 | [16] 0.005

RPIA (UniProt P49247)
inactive: erlotinib -0.038 | [1] 0.008 | [2] -0.007 | [3] -0.005 | [4] 0.002 | [5] -0.032 | [6] -0.026 | [7] 0.017 | [8] 0.043 | IRAK-1-4 Inhibitor I 0.004 | ibrutinib 0.008 | [9] 0.034 | ralimetinib 0.015 | [10] -0.023 | [11] -0.015 | [12] 0 | [13] -0.023 | [14] 0.012 | [15] -0.021 | [16] -0.006

RNF113A (UniProt O15541)
inactive: erlotinib -0.039 | [1] -0.039 | [2] 0.036 | [3] 0.027 | [4] -0.008 | [5] -0.01 | [6] -0.02 | [7] -0.005 | [8] 0.01 | IRAK-1-4 Inhibitor I 0.02 | ibrutinib 0.009 | [9] -0.003 | ralimetinib 0.005 | [10] -0.049 | [11] 0.111 | [12] 0.015 | [13] -0.038 | [14] 0.024 | [15] 0.017 | [16] -0.03

RPL10A (UniProt P62906)
inactive: erlotinib 0.017 | [1] -0.051 | [2] -0.016 | [3] 0.017 | [4] 0.024 | [5] 0.036 | [6] 0.051 | [7] 0.011 | [8] -0.024 | IRAK-1-4 Inhibitor I 0.028 | ibrutinib -0.028 | [9] -0.003 | ralimetinib -0.015 | [10] 0.009 | [11] 0.017 | [12] -0.013 | [13] -0.017 | [14] 0 | [15] 0.004 | [16] 0.03

RPL34 (UniProt P49207)
inactive: erlotinib -0.023 | [1] -0.307 | [2] -0.006 | [3] -0.009 | [4] -0.003 | [5] -0.02 | [6] 0.043 | [7] 0.045 | [8] -0.018 | IRAK-1-4 Inhibitor I -0.017 | ibrutinib -0.007 | [9] -0.005 | ralimetinib 0.016 | [10] 0.002 | [11] 0.006 | [12] -0.01 | [13] -0.029 | [14] -0.007 | [15] -0.019 | [16] -0.001

RPL13A (UniProt P40429)
inactive: erlotinib -0.032 | [1] -0.089 | [2] -0.064 | [3] -0.022 | [4] 0.009 | [5] 0.03 | [6] 0.041 | [7] 0.029 | [8] -0.007 | IRAK-1-4 Inhibitor I 0.001 | ibrutinib -0.036 | [9] -0.01 | ralimetinib -0.013 | [10] -0.002 | [11] 0.006 | [12] -0.036 | [13] -0.055 | [14] -0.03 | [15] 0 | [16] 0.031

Two consecutive entries already listed, for reference:
RPF2 (UniProt Q9H7B2)
inactive: erlotinib 0.098 | [1] 0.105 | [2] 0.079 | [3] 0.026 | [4] 0.075 | [5] 0.044 | [6] -0.035 | [7] -0.02 | [8] 0.026 | IRAK-1-4 Inhibitor I -0.012 | ibrutinib 0.028 | [9] 0.004 | ralimetinib -0.006 | [10] -0.028 | [11] -0.043 | [12] 0.072 | [13] -0.014 | [14] 0.053 | [15] 0.041 | [16] 0.005

RPIA (UniProt P49247)
inactive: erlotinib -0.038 | [1] 0.008 | [2] -0.007 | [3] -0.005 | [4] 0.002 | [5] -0.032 | [6] -0.026 | [7] 0.017 | [8] 0.043 | IRAK-1-4 Inhibitor I 0.004 | ibrutinib 0.008 | [9] 0.034 | ralimetinib 0.015 | [10] -0.023 | [11] -0.015 | [12] 0 | [13] -0.023 | [14] 0.012 | [15] -0.021 | [16] -0.006

(list continues)

ROCK2 (UniProt O75116)
inactive: erlotinib 0.027 | [1] -0.023 | [2] 0.025 | [3] 0.121 | [4] 0.001 | [5] -0.009 | [6] -0.012 | [7] 0.031 | [8] 0.059 | IRAK-1-4 Inhibitor I -0.003 | ibrutinib -0.02 | [9] 0.008 | ralimetinib 0.017 | [10] -0.004 | [11] 0.004 | [12] 0.142 | [13] -0.025 | [14] -0.022 | [15] 0.029 | [16] -0.003

RPL36A (UniProt P83881)
inactive: erlotinib 0.076 | [1] -0.024 | [2] 0.006 | [3] -0.05 | [4] -0.028 | [5] -0.001 | [6] -0.001 | [7] -0.001 | [8] 0.014 | IRAK-1-4 Inhibitor I -0.075 | ibrutinib -0.129 | [9] -0.034 | ralimetinib -0.009 | [10] -0.039 | [11] 0.05 | [12] -0.062 | [13] 0.003 | [14] 0.083 | [15] 0.056 | [16] 0.024

RNGTT (UniProt O60942)
inactive: erlotinib -0.061 | [1] -0.021 | [2] 0.008 | [3] 0.003 | [4] 0.124 | [5] 0.002 | [6] -0.026 | [7] -0.004 | [8] -0.056 | IRAK-1-4 Inhibitor I -0.04 | ibrutinib -0.158 | [9] -0.012 | ralimetinib 0.053 | [10] 0.041 | [11] -0.083 | [12] -0.014 | [13] -0.007 | [14] -0.018 | [15] 0.039 | [16] 0.006

RHOT1 isoform 3 (UniProt Q8IXI2)
inactive: erlotinib 0.022 | [1] 0.083 | [2] 0.018 | [3] -0.038 | [4] -0.021 | [5] 0.006 | [6] -0.131 | [7] 0.011 | [8] 0.065 | IRAK-1-4 Inhibitor I 0.017 | ibrutinib -0.009 | [9] -0.036 | ralimetinib -0.02 | [10] -0.017 | [11] 0.027 | [12] 0.012 | [13] 0.006 | [14] -0.011 | [15] 0.054 | [16] 0.006

RPL19 (UniProt P84098)
inactive: erlotinib -0.076 | [1] -0.071 | [2] -0.064 | [3] -0.014 | [4] 0.017 | [5] 0.001 | [6] 0.069 | [7] 0.015 | [8] -0.049 | IRAK-1-4 Inhibitor I -0.022 | ibrutinib -0.022 | [9] 0.036 | ralimetinib 0.025 | [10] -0.025 | [11] 0.014 | [12] -0.01 | [13] -0.018 | [14] -0.055 | [15] 0.002 | [16] 0.012
